Experimental data: patent publication US5221732A, “Antimicrobial magainin modified peptides” (priority 1988, dated 1993)
Part of at least one peptide drawing is inferred or uncertain, most often the ends. Where a SMILES comes first, the peptide text is derived from it.

Tested on: Gram-positive and Gram-negative bacteria
Assay: Antimicrobial assay, overall statements
Format: cell-based
Protocol: The antimicrobial activities of magainin analogues were assayed by macrodilution broth procedure of Jones et al (Jones, R. N., Barry, A. L., Gaven, T. L. and Washington, J. A. in "Manual of Clinical Microbiology", Lennette, D. H. Balows, A., Hausler, W. J. and Shadomy, H. J., eds; fourth edition, American Society for Microbiology, Washington, D.C., 1985) with modifications. Different concentrations of peptides were added to 2 ml of trypticase soy broth (BBL) containing the inocula of the test organisms adjusted to 10^5 and 10^6 CFU/ml. Microbial growth was determined by the increase in OD600, after incubation of the tubes at 35° C. for 6-9 h depending on the growth rate. […] The 50% minimal inhibitory concentration was determined from the plots of growth vs concentration of peptide.

## CC[C@H](C)[C@H](NC(=O)CN)C(=O)NCC(=O)N[C@@H](CCCCN)C(=O)N[C@@H](Cc1ccccc1)C(=O)N[C@@H](CC(C)C)C(=O)N[C@@H](Cc1c[nH]cn1)C(=O)N[C@@H](CO)C(=O)N[C@H](C)C(=O)N[C@@H](CCCCN)C(=O)N[C@@H](CCCCN)C(=O)N[C@@H](Cc1ccccc1)C(=O)N[C@H](C)C(=O)N[C@@H](CCCCN)C(=O)N[C@@H](C)C(=O)N[C@@H](Cc1ccccc1)C(=O)N[C@H](C(=O)N[C@H](C)C(=O)N[C@@H](CCC(=O)O)C(=O)N[C@H](C(=O)N[C@@H](CCSC)C(=O)N[C@@H](CC(N)=O)C(=O)N[C@@H](CO)C(N)=O)[C@@H](C)CC)C(C)C [analogue H] (HELM PEPTIDE1{G.I.G.K.F.L.H.S.[dA].K.K.F.[dA].K.A.F.V.[dA].E.I.M.N.S.[am]}$$$$V2.0)
  growth inhibition of both Gram-positive and Gram-negative bacteria (in words): no activity in all cases
